These are yes or no findings as the source states them, for the method shown. A result given as binding can be weak or reduced; the word gives no strength.
Target: his tagged human LAIR1 recombinant protein (human) (UniProt Q6GTX8)
Assay: BLI; Octet RED96: NTA biosensors capture his tagged human LAIR1 (20 μg/ml); h219 or control antibody h94 (40 μg/ml) loaded; then collagen I (80 μg/ml) binding signal detected; both purified

By UniProt entry, the sequences of proteins in these tests, tags left out. Where a name states a change or a piece, a line headed by the entry shows the natural chain unless it says otherwise.
UniProt Q6GTX8: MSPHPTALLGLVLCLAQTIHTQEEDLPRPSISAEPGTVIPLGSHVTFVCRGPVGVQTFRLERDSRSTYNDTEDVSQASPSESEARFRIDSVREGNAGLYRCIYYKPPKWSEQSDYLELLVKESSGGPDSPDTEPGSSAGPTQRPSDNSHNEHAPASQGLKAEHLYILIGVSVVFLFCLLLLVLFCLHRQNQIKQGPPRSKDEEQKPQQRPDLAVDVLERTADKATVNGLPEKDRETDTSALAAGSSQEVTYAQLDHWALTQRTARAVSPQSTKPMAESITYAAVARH
UniProt P02452: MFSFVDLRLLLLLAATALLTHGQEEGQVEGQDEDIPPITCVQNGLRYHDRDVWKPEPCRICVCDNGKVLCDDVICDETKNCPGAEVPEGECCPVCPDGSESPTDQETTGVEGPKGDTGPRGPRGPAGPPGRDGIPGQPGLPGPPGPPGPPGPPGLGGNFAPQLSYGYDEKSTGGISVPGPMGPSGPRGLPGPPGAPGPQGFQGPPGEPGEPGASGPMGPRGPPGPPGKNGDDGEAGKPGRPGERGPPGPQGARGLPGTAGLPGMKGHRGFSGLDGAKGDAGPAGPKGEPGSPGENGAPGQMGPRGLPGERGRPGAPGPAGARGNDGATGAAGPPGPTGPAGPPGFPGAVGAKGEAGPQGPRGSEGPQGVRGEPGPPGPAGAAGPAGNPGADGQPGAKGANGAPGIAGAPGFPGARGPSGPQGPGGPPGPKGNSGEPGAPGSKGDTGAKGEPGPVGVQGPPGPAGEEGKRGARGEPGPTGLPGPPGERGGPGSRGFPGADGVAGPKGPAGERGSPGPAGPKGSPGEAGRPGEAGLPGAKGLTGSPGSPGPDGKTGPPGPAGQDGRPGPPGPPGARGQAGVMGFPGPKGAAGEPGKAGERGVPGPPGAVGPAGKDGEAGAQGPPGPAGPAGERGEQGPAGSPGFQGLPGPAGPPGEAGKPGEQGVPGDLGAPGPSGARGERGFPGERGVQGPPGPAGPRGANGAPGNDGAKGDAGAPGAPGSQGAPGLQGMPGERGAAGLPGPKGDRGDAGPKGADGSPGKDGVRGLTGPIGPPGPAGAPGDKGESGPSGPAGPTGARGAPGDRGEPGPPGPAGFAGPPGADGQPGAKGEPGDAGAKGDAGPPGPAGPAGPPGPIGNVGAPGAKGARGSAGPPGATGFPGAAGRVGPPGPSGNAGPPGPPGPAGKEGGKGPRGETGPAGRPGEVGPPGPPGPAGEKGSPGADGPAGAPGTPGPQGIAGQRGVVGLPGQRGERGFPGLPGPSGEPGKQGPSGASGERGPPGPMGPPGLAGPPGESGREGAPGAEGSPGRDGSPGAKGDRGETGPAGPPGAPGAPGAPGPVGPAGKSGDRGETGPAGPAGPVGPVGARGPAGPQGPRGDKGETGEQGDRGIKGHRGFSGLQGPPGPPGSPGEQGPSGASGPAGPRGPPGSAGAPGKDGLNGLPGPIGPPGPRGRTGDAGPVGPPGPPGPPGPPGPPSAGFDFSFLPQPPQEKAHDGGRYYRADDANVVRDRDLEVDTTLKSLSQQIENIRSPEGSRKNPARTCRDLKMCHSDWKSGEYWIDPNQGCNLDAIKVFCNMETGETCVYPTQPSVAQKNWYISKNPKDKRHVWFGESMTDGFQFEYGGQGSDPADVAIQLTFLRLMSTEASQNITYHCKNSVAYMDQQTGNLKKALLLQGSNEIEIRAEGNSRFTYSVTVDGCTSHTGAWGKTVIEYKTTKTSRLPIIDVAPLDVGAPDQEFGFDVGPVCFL

With “Collagen I (from UniProt P02452 162-1218; P08123 80-1119)” the binding was “binds”.
